# Experimental data published in the supplement of paper PMC12823440, “Inhibitors supercharge kinase turnover through native proteolytic circuits” (Nature, 2025).
# Protein sequences, listed by entry. Tags and fused reporters are not part of them. Lines headed by an entry give the natural chain unless they say otherwise; changes in a name come on top.
# UniProt Q01974, whole entry: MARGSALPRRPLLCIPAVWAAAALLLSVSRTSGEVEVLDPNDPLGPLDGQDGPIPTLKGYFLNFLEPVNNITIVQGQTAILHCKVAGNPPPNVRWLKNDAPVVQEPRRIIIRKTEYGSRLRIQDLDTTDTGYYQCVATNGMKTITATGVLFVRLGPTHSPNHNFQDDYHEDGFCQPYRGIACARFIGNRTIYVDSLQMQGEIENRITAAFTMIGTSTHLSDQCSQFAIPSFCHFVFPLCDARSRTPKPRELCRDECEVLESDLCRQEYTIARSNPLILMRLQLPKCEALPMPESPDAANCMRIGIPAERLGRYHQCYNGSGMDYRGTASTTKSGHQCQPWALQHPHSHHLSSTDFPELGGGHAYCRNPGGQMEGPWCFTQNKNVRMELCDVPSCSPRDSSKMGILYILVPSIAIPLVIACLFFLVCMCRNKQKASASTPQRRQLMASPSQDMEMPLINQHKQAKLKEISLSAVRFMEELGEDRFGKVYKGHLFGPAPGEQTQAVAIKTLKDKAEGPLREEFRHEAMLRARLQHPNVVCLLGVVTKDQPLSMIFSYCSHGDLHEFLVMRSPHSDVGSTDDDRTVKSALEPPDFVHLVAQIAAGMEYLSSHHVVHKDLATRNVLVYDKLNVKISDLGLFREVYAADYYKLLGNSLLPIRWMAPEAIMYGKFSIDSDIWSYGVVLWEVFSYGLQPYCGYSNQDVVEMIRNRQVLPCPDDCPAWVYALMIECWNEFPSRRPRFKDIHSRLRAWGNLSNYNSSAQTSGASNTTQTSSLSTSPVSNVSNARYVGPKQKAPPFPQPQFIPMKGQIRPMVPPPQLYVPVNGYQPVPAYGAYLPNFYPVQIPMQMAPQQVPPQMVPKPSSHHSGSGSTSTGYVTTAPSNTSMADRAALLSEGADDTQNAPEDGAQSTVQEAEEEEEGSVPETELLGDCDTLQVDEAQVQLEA
# UniProt Q15418, whole entry: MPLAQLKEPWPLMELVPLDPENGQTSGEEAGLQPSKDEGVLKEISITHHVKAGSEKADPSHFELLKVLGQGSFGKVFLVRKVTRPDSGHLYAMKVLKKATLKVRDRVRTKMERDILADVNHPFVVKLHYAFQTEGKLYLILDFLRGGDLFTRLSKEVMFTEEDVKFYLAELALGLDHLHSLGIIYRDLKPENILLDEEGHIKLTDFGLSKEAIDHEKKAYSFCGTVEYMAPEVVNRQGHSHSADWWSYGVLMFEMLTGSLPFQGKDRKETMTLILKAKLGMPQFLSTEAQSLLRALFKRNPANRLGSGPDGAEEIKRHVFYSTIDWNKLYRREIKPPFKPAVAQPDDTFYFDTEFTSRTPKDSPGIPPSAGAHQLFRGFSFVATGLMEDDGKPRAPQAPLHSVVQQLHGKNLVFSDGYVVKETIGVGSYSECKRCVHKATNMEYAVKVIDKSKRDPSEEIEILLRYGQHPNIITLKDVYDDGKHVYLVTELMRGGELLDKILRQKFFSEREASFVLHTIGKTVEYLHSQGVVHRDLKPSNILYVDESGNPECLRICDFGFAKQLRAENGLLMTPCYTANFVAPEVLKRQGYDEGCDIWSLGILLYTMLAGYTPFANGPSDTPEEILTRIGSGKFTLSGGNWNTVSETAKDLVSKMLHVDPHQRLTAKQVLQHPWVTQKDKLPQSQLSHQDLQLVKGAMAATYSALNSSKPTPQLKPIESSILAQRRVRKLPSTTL
# UniProt Q9NYA1, whole entry: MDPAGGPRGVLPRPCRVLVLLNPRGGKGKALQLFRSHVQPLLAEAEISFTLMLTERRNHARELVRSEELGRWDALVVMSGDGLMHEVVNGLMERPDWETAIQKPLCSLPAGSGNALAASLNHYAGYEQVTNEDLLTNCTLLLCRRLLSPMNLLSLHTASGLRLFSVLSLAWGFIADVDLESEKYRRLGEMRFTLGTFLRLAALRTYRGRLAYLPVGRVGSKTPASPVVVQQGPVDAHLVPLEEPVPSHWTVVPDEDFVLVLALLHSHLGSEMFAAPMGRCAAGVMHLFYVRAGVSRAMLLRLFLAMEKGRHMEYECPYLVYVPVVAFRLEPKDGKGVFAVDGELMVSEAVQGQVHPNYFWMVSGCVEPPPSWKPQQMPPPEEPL
# UniProt Q9Y6E0: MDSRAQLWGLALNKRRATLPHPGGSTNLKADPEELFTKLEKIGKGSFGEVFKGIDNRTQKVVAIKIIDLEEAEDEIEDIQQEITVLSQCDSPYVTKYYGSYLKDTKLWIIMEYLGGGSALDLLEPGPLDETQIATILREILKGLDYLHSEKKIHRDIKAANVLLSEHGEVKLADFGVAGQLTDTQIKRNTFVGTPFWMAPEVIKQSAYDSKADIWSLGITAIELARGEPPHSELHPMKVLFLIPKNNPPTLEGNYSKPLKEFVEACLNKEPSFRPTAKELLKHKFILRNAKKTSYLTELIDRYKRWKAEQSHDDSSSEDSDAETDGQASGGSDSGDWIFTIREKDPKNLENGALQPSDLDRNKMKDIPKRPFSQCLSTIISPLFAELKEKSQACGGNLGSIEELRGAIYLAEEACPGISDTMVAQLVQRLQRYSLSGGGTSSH
# UniProt Q15208: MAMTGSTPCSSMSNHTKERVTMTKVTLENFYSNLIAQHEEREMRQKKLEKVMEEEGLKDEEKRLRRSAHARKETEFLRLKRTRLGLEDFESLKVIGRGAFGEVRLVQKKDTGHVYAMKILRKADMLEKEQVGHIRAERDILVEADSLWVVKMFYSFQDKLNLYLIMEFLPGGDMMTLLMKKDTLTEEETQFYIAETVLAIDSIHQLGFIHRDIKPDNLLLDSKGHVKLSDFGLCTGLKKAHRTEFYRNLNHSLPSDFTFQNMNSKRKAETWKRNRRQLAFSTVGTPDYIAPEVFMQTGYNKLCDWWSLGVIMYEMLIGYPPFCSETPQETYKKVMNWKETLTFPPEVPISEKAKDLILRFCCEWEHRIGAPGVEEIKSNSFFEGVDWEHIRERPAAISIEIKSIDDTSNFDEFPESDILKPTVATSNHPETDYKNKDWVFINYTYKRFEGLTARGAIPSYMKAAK
# UniProt P42680: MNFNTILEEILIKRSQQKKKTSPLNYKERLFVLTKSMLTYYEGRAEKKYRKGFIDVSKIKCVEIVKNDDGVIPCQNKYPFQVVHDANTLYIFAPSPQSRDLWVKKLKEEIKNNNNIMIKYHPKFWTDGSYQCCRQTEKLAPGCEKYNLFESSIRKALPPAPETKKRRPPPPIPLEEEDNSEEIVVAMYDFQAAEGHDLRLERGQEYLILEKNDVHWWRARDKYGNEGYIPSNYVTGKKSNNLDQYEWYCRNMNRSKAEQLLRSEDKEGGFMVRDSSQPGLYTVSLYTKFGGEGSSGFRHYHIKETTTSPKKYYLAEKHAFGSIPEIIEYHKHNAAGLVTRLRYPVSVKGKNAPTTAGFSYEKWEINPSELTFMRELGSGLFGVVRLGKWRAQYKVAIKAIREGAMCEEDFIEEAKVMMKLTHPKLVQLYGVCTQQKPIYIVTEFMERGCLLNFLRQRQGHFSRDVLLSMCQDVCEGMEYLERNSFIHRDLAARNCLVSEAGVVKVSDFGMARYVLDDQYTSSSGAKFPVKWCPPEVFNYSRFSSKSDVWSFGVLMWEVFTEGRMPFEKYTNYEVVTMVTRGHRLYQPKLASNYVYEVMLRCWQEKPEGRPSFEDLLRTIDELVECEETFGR
# UniProt P29597: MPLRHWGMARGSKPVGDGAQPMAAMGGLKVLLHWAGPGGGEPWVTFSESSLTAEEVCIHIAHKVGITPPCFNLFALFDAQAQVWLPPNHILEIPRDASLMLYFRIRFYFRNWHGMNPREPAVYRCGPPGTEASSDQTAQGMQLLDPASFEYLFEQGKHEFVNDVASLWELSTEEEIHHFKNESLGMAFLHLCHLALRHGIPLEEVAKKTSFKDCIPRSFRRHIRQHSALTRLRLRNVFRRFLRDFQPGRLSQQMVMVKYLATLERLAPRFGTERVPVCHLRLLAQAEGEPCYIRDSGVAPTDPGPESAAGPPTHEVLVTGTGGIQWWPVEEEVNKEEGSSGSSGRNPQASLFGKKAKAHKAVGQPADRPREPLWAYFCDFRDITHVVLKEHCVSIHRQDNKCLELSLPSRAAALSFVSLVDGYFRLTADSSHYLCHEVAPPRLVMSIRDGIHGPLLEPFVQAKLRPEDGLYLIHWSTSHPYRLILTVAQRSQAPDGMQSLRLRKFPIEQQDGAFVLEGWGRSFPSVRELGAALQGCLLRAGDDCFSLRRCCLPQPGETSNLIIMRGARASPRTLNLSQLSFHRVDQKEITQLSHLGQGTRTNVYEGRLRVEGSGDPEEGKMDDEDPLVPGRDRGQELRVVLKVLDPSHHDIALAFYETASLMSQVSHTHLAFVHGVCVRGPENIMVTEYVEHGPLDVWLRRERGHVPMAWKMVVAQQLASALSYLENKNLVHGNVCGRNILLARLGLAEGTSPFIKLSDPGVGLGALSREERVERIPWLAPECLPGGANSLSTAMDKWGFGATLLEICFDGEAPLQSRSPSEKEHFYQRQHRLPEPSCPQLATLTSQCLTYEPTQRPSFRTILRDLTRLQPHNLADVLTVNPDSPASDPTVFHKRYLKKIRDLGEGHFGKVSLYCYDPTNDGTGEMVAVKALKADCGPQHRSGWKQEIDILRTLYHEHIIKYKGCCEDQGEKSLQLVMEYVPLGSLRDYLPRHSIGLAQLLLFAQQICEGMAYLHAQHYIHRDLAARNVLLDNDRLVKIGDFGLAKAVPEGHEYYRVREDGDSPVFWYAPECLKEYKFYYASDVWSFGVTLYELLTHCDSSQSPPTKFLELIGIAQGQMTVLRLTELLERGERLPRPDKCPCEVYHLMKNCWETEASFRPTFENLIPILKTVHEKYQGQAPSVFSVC
# UniProt Q6PHR2: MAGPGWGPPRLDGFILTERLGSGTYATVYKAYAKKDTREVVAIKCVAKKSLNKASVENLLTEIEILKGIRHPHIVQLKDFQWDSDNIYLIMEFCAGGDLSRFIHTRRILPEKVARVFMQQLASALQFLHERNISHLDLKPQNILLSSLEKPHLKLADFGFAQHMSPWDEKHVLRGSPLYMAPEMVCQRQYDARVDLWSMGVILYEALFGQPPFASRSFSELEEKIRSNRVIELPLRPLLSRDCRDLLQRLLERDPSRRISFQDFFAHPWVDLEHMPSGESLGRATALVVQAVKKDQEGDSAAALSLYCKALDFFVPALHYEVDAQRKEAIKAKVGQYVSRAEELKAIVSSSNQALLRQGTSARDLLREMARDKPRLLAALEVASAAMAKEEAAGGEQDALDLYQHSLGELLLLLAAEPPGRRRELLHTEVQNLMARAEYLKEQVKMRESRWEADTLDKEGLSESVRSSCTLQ
# Counter-ions that a name gives are not always drawn. Some of the results follow. The calls rarely recur for the same compound in another form.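 In K562 cells expressing nanoluciferase-fused kinases, luminescence was recorded at 4 h intervals between 2 and 18 h, normalized as percent of control with DMSO at 100% and a positive control at 0%. A significant (2 sigma) signal drop marks a time point as decreased. The authors' rule for a hit is not shown and takes in more than the number of time points.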
# Columns and labels:
# Assay in all cases: number of time points (of 5) at which kinase-Nluc abundance scored as decreased, DMSO-normalised (count); higher = more persistent destabilization
# Conditions in all cases: K562; 2-18 h
# ROR2 = ROR2 (UniProt Q01974)
# RPS6KA1 = RPS6KA1 (UniProt Q15418)
# SPHK1 = SPHK1 (UniProt Q9NYA1)
# SRC = SRC (UniProt P12931)
# STK24 = STK24 (UniProt Q9Y6E0)
# STK38 = STK38 (UniProt Q15208)
# SYK = SYK (UniProt P43405)
# TEC = TEC (UniProt P42680)
# TYK2 = TYK2 (UniProt P29597)
# ULK3 = ULK3 (UniProt Q6PHR2)
SMILES,number of time points (ROR2),number of time points (RPS6KA1),number of time points (SPHK1),number of time points (SRC),number of time points (STK24),number of time points (STK38),number of time points (SYK),number of time points (TEC),number of time points (TYK2),number of time points (ULK3)
Cc1cccc(Cn2nc(C)c3c(NC(=O)c4csc5c(N)ncnc45)cccc32)n1 (10 µM),0,0,0,0,0,0,0,0,0,0
CNS(=O)(=O)Nc1nccc(Cc2c(C)c3ccc(Oc4ncccn4)cc3oc2=O)c1F (10 µM),0,0,0,0,0,0,0,0,1,1
CC(C)(O)c1cc(Nc2cc(Oc3cn(C4CC4)nc3C3CCOCC3)ccn2)ccn1 (10 µM),0,0,0,0,0,0,0,0,0,0
CNC[C@@H](NC(=O)c1ccc(-c2nc([C@H]3CC[C@H](O)[C@@H](F)C3)cnc2N)cc1F)c1cc(F)cc(Br)c1 [Rineterkib] (10 µM),0,0,0,0,0,0,0,0,0,0
COc1ccc(F)cc1C(=O)NCc1ccc(-c2nn([C@@H](C)C(F)(F)F)c(N)c2C(N)=O)cc1 [Pirtobrutinib] (10 µM),0,0,0,0,0,0,0,0,0,0
Clc1ccc(Nc2cccc(-c3cn[nH]c3)c2)cc1 (10 µM),0,0,0,0,0,0,0,0,0,0
O=C(NCc1cccc(O)c1)c1cc2cc(F)ccc2[nH]1 (10 µM),0,0,0,0,0,0,0,0,0,0
CC(C)(C)S(=O)(=O)c1cc2c(Nc3ccc4scnc4c3)ccnc2cc1OCCOCCOCCOCCOCC(=O)Nc1cccc2c1CN(C1CCC(=O)NC1=O)C2=O (stereo not given) [PROTAC RIPK degrader-6] (10 µM),0,0,0,0,0,0,0,0,0,0
CC1=C(C(=O)Nc2ccc3[nH]ncc3c2)C(c2ccc(F)c(C(=O)NCc3ccccn3)c2)NC(=O)N1 (stereo not given) (10 µM),0,0,0,0,0,0,0,0,0,0
CCOC(=O)C1=C[C@]2(CC)CCCN3CCc4c(n1c1ccccc41)[C@@H]32 [Vinpocetine] (10 µM),0,0,0,0,0,0,0,0,0,0
COC(=O)c1cc2c(OC(C)C)cc(OC(C)C)cc2[nH]1 (2.5 µM),0,0,0,0,0,0,0,0,0,0
C=CCN(/C=C1/C(=O)O[C@H](COC)[C@@]2(C)C1=C(O)C(=O)C1=C2[C@H](OC(C)=O)C[C@]2(C)C(=O)CC[C@@H]12)CC=C [Sonolisib] (2.5 µM),0,0,0,0,0,0,0,0,0,0
CCc1ccc(NC(=O)Nc2ccccc2)cc1 (10 µM),0,0,0,0,0,0,0,0,0,0
C=CC(=O)Nc1cccc(Nc2nc(Nc3ccc(Oc4ccnc(C(=O)NC)c4)cc3)ncc2F)c1 (2.5 µM),0,0,0,0,0,0,0,0,0,0
O=c1sn(-c2cccc3ccccc23)c(=O)n1Cc1ccccc1 [Tideglusib] (10 µM),0,0,0,0,0,0,0,0,0,0
NC(=O)c1ccc2nc(-c3ccc(C4(N)CCC4)cc3)c(-c3ccccc3)n2n1 (10 µM),0,0,0,0,0,0,0,0,0,0

# 8 entries from above in a different format:
SMILES	number of time points (ROR2)	number of time points (RPS6KA1)	number of time points (SPHK1)	number of time points (SRC)	number of time points (STK24)	number of time points (STK38)	number of time points (SYK)	number of time points (TEC)	number of time points (TYK2)	number of time points (ULK3)
COc1ccc(F)cc1C(=O)NCc1ccc(-c2nn([C@@H](C)C(F)(F)F)c(N)c2C(N)=O)cc1 [Pirtobrutinib] (10 µM)	0	0	0	0	0	0	0	0	0	0
Clc1ccc(Nc2cccc(-c3cn[nH]c3)c2)cc1 (10 µM)	0	0	0	0	0	0	0	0	0	0
O=C(NCc1cccc(O)c1)c1cc2cc(F)ccc2[nH]1 (10 µM)	0	0	0	0	0	0	0	0	0	0
CC(C)(C)S(=O)(=O)c1cc2c(Nc3ccc4scnc4c3)ccnc2cc1OCCOCCOCCOCCOCC(=O)Nc1cccc2c1CN(C1CCC(=O)NC1=O)C2=O (stereo not given) [PROTAC RIPK degrader-6] (10 µM)	0	0	0	0	0	0	0	0	0	0
CC1=C(C(=O)Nc2ccc3[nH]ncc3c2)C(c2ccc(F)c(C(=O)NCc3ccccn3)c2)NC(=O)N1 (stereo not given) (10 µM)	0	0	0	0	0	0	0	0	0	0
COC(=O)c1cc2c(OC(C)C)cc(OC(C)C)cc2[nH]1 (2.5 µM)	0	0	0	0	0	0	0	0	0	0
C=CC(=O)Nc1cccc(Nc2nc(Nc3ccc(Oc4ccnc(C(=O)NC)c4)cc3)ncc2F)c1 (2.5 µM)	0	0	0	0	0	0	0	0	0	0
O=c1sn(-c2cccc3ccccc23)c(=O)n1Cc1ccccc1 [Tideglusib] (10 µM)	0	0	0	0	0	0	0	0	0	0

# More entries:

SMILES,number of time points (ROR2),number of time points (RPS6KA1),number of time points (SPHK1),number of time points (SRC),number of time points (STK24),number of time points (STK38),number of time points (SYK),number of time points (TEC),number of time points (TYK2),number of time points (ULK3)
O=C1NC(=O)C(c2ccccc2[N+](=O)[O-])=C1Nc1ccc(O)c(Cl)c1 (10 µM),0,0,0,0,0,0,0,0,0,0
CN1CCC(c2ccccc2CC(C)(C)Nc2nc(N3CCOCC3)nc(-n3c(S(C)(=O)=O)nc4ccccc43)n2)CC1 (10 µM),0,0,0,0,0,0,0,0,0,0
CCCCNc1ncc2c(-c3ccc(CN4CCN(C)CC4)cc3)cn([C@H]3CC[C@H](O)CC3)c2n1 [UNC2025 (hydrochloride)] (2.5 µM),0,0,0,0,0,0,0,0,0,4
CC[C@H](C)[C@H](NC(=O)[C@H](CCCCN)NC(=O)[C@H](CC(C)C)NC(=O)[C@@H]1CCCN1C(=O)[C@H](CCC(=O)O)NC(=O)[C@H](Cc1ccc(O)cc1)NC(=O)[C@@H](NC(=O)[C@H](CO)NC(=O)CNC(=O)[C@H](CO)NC(=O)[C@H](CCCN=C(N)N)NC(=O)[C@H](CCCCN)NC(=O)[C@@H](NC(=O)[C@@H](N)CCCN=C(N)N)[C@@H](C)O)C(C)C)C(=O)O [Malantide] (10 µM),0,0,0,0,0,0,0,0,0,0
Cc1nc(Nc2ncc(C(=O)Nc3c(C)cccc3Cl)s2)cc(N2CCN(C(=O)CCCCCCC(=O)N[C@H](C(=O)N3C[C@H](O)C[C@H]3C(=O)NCc3ccc(-c4scnc4C)cc3)C(C)(C)C)CC2)n1 (2.5 µM),1,1,2,2,0,2,0,3,3,3
NC(=O)c1nc(-c2c(F)cccc2Cl)oc1Nc1ccc(C(=O)N2CCOCC2)cc1 (10 µM),0,0,0,0,0,0,0,0,0,0
COc1ccc2c(c1)C[C@H](C(=O)Nc1ccc(-c3cn[nH]c3)cc1OCCN(C)C)CO2 [Chroman 1] (10 µM),0,0,0,0,0,0,0,0,0,0
CCCCCC1CC1CC1CC1CCCCCCCC(=O)O (stereo not given) (10 µM),0,0,0,0,0,0,0,0,0,0
CCC(=O)N1CC[C@H](Nc2ncnc3c2CN(c2cnc(OC)c(C(F)(F)F)c2)CC3)C1 [Leniolisib] (10 µM),0,0,0,0,0,0,0,0,0,0
Oc1ccc2ccccc2c1SSc1c(O)ccc2ccccc12 (10 µM),0,0,0,0,0,0,0,0,0,0
O=C1NCCSc2c1sc1ccc(O)cc21 (2.5 µM),0,0,0,0,0,0,0,0,0,0
COc1cc(Nc2nc3ccccc3nc2NS(=O)(=O)c2ccc(NC(=O)c3ccc(C)c(OC)c3)cc2)cc(OC)c1 (10 µM),0,0,0,0,0,0,0,0,0,0
O=c1cc(-c2ccc(O)cc2)oc2cc(O)c(O)c(O)c12 [Scutellarein] (10 µM),0,0,0,0,0,0,0,0,0,0
COc1cc(-c2cnc(N)c(-c3ccc(NC(=O)c4cn(CC5CCOCC5)cc(-c5ccc(C)cn5)c4=O)cc3F)c2)ccc1OC[C@H]1COCCO1 [DS-1205b (free base)] (10 µM),0,0,0,0,0,0,0,0,0,0
C[C@]1(O)C[C@@](N)(c2ccc(-c3nc4n(c3-c3ccccc3)COc3ccncc3-4)cc2)C1 [TAS-117 (hydrochloride)] (10 µM),0,0,0,0,0,0,0,0,0,0
COC[C@H]1Cn2cc(-c3nc(Nc4ccnn4C)ncc3C)nc2C(=O)N1Cc1ccc(F)c(F)c1 (10 µM),0,0,0,0,0,0,0,0,0,0
